In patent publication US20260184791A1:
No constants are given. Whether binding was seen depends on the method and setting. Some binding calls cover weakened binding; strength is not graded here.

Columns and labels:
[1] = molecular target: T1, human ICOS (protein used in the HTRF assay) (human) (UniProt Q9Y6W8); assay: HTRF, human IgG1 in HEK supernatant
T1 sequence: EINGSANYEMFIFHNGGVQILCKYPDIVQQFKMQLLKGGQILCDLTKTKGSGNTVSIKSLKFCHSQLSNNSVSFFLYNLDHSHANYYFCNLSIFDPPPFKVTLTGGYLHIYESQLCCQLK

[2] = molecular target: T2, mouse ICOS (protein used in the HTRF assay) (mouse) (UniProt Q9WVS0); assay: HTRF, human IgG1 in HEK supernatant
T2 sequence: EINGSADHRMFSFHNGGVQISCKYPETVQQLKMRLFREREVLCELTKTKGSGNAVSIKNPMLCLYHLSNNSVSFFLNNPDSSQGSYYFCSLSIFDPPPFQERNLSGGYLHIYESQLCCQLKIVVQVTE

[3] = molecular target: mouse ICOS expressed on the surface of CHO-S cells (mouse) (UniProt Q9WVS0); assay: Mirrorball, CHO-S cells expressing ICOS
[4] = molecular target: mouse ICOS expressed on the surface of CHO-S cells (mouse) (UniProt Q9WVS0); assay: flow cytometry, CHO-S cells expressing ICOS, purified IgG1

Measured: binding

B1: CL-61091 (antibody, human IgG1, V domains shown)
VH: QVQLMQSGTEVKKPGASVKVSCKTSGYTFTTYGITWVRQAPGQGLEWMGWISAYSGDTDYAQKFQGRVTVTTDTSTNTAYMELRSLKSDDTAVYYCARSSGWPHHYGMDVWGQGTTVTVSS
VL: DIVMTQSPLSLPVTPGEPASISCRSSQSLLHSNGFNYFDWYLQKPGQSPQLLIFLVSNRASGVPDRFSGSGSGTDFTLKISRVEAEDVGIYYCMQALQTPLTFGGGTKVEIK
binds: all assays above
